Results are given in words; binding and its absence hold for the method and conditions named. In cells and extracts the contact can be indirect. Binding can be weak; no strength is given.

This experiment concerns the target GST-dMi-2 ATPase domain (Drosophila). As to the kind of experiment: pull-down; 2 ug GST fusion protein on glutathione beads; 35S-labelled in vitro translated protein in GST pulldown buffer (25 mM Hepes pH 7.6, 150 mM NaCl, 12.5 mM MgCl2, 0.1% NP-40, 0.1 mM DTT), 2 h at 4 °C; autoradiography; only the target purified.

B1: 35S-labelled EcR, in vitro translated (receptor, UniProt P34021 1-878)
chain: MKRRWSNNGGFMRLPEESSSEVTSSSNGLVLPSGVNMSPSSLDSHDYCDQDLWLCGNESGSFGGSNGHGLSQQQQSVITLAMHGCSSTLPAQTTIIPINGNANGNGGSTNGQYVPGATNLGALANGMLNGGFNGMQQQIQNGHGLINSTTPSTPTTPLHLQQNLGGAGGGGIGGMGILHHANGTPNGLIGVVGGGGGVGLGVGGGGVGGLGMQHTPRSDSVNSISSGRDDLSPSSSLNGYSANESCDAKKSKKGPAPRVQEELCLVCGDRASGYHYNALTCEGCKGFFRRSVTKSAVYCCKFGRACEMDMYMRRKCQECRLKKCLAVGMRPECVVPENQCAMKRREKKAQKEKDKMTTSPSSQHGGNGSLASGGGQDFVKKEILDLMTCEPPQHATIPLLPDEILAKCQARNIPSLTYNQLAVIYKLIWYQDGYEQPSEEDLRRIMSQPDENESQTDVSFRHITEITILTVQLIVEFAKGLPAFTKIPQEDQITLLKACSSEVMMLRMARRYDHSSDSIFFANNRSYTRDSYKMAGMADNIEDLLHFCRQMFSMKVDNVEYALLTAIVIFSDRPGLEKAQLVEAIQSYYIDTLRIYILNRHCGDSMSLVFYAKLLSILTELRTLGNQNAEMCFSLKLKNRKLPKFLEEIWDVHAIPPSVQSHLQITQEENERLERAERMRASVGGAITAGIDCDSASTSAAAAAAQHQPQPQPQPQPSSLTQNDSQHQTQPQLQPQLPPQLQGQLQPQLQPQLQTQLQPQIQPQPQLLPVSAPVPASVTAPGSLSAVSTSSEYMGGSAAIGPITPATTSSITAAVTASSTTSAVPMGNGVGVGVGVGGNVSMYANAQTAMALMGVALHSHQEQLIGGVAVKSEHSTTA
modifications: 35S-methionine labelled
As for B1, the binding entry is recorded as “binds”.

The values are drawn from paper PMC5382322.
